The list shows a part of the results. Hit calls seldom repeat between salt and free forms of one compound.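 Kinases were expressed as nanoluciferase fusions in K562 cells and luminescence was read every 4 h between 2 and 18 h as percent of control, DMSO set to 100% and a positive control to 0%. A time point counts as decreased when the signal drops significantly (2 sigma). The hit call is the authors' own, does not follow from the count of time points alone, and its rule is not shown.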
Tests used:
Assay in all cases: number of time points (of 5) at which kinase-Nluc abundance scored as decreased, DMSO-normalised (count); higher = more persistent destabilization
Details in all cases: K562; 2-18 h
CSNK1A1 = CSNK1A1 (UniProt P48729)
CSNK1D = CSNK1D (UniProt P48730)
DDR1 = DDR1 (UniProt Q08345)
DYRK1B = DYRK1B (UniProt Q9Y463)
DYRK2 = DYRK2 (UniProt Q92630)
EGFR = EGFR (UniProt P00533)
EGFR_G719S = EGFR_G719S (UniProt P00533)
EGFR_G719S_T790M = EGFR_G719S_T790M (UniProt P00533)
EGFR_L718V = EGFR_L718V (UniProt P00533)
EGFR_L858R = EGFR_L858R (UniProt P00533)
EGFR_L861Q = EGFR_L861Q (UniProt P00533)
EGFR_T790M = EGFR_T790M (UniProt P00533)
EPHA2 = EPHA2 (UniProt P29317)
ERBB3 = ERBB3 (UniProt P21860)
[1] = biological target: ERBB4_R711C (clone: ERBB4_mut) (UniProt Q15303)
ERN1 = ERN1 (UniProt O75460)
FGFR1 = FGFR1 (UniProt P11362)
FGFR2 = FGFR2 (UniProt P21802)
FGFR3 = FGFR3 (UniProt P22607)
FGR = FGR (UniProt P09769)

Chains of the proteins cited; added tags and fusions are not shown. Lines headed by an entry give the natural chain unless they say otherwise; changes in a name come on top.
UniProt P48730: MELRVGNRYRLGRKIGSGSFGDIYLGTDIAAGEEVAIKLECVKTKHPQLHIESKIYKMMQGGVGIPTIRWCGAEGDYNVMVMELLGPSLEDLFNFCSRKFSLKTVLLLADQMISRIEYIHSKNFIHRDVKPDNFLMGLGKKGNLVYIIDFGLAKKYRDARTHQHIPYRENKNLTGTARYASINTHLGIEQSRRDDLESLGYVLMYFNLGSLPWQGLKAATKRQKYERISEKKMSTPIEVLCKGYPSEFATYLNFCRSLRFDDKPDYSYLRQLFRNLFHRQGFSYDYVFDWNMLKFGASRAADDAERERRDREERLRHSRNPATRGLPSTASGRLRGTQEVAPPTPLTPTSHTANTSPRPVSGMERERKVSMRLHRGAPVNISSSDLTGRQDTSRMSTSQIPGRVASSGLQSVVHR
UniProt Q9Y463, whole entry, looked up: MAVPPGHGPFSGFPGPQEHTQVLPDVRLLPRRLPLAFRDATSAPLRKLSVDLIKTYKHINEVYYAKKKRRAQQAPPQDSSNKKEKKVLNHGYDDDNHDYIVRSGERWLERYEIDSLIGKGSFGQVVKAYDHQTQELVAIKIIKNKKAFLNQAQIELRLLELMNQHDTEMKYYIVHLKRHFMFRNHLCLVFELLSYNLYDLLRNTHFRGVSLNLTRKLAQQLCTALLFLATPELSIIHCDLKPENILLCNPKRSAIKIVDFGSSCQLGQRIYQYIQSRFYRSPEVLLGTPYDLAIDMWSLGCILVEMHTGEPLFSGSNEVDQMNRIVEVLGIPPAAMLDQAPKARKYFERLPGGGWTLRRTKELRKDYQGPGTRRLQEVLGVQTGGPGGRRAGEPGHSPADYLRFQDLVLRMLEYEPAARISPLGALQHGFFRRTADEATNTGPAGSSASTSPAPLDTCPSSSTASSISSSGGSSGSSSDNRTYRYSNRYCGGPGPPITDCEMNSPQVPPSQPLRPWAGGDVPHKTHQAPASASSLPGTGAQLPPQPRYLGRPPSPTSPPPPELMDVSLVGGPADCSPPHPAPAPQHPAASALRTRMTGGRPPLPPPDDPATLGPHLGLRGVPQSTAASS
UniProt P29317, whole entry: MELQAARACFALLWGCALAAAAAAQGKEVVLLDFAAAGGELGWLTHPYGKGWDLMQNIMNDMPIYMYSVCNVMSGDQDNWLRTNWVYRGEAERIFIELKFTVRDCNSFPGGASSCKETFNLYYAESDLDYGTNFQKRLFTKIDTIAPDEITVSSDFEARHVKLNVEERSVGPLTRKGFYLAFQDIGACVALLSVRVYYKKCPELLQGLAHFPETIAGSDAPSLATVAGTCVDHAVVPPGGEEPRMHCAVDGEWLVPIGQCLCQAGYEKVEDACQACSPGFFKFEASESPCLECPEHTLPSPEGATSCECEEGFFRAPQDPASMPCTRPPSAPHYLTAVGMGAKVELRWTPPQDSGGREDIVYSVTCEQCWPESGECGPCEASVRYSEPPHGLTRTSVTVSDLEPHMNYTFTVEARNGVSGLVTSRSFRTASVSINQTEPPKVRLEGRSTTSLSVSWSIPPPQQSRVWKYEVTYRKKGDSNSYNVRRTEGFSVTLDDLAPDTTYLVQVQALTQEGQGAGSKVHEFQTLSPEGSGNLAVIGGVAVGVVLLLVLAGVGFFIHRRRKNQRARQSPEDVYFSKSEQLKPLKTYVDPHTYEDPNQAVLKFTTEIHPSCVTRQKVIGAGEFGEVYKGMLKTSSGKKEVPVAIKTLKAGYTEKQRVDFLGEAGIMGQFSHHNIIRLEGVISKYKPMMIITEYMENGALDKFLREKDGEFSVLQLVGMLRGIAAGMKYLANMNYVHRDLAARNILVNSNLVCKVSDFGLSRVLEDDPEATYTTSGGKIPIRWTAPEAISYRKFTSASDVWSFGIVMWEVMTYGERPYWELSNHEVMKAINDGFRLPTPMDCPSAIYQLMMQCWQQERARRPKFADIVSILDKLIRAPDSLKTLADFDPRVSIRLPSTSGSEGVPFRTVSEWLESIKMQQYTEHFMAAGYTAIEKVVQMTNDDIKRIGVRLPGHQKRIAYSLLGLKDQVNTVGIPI
UniProt P21860, whole entry: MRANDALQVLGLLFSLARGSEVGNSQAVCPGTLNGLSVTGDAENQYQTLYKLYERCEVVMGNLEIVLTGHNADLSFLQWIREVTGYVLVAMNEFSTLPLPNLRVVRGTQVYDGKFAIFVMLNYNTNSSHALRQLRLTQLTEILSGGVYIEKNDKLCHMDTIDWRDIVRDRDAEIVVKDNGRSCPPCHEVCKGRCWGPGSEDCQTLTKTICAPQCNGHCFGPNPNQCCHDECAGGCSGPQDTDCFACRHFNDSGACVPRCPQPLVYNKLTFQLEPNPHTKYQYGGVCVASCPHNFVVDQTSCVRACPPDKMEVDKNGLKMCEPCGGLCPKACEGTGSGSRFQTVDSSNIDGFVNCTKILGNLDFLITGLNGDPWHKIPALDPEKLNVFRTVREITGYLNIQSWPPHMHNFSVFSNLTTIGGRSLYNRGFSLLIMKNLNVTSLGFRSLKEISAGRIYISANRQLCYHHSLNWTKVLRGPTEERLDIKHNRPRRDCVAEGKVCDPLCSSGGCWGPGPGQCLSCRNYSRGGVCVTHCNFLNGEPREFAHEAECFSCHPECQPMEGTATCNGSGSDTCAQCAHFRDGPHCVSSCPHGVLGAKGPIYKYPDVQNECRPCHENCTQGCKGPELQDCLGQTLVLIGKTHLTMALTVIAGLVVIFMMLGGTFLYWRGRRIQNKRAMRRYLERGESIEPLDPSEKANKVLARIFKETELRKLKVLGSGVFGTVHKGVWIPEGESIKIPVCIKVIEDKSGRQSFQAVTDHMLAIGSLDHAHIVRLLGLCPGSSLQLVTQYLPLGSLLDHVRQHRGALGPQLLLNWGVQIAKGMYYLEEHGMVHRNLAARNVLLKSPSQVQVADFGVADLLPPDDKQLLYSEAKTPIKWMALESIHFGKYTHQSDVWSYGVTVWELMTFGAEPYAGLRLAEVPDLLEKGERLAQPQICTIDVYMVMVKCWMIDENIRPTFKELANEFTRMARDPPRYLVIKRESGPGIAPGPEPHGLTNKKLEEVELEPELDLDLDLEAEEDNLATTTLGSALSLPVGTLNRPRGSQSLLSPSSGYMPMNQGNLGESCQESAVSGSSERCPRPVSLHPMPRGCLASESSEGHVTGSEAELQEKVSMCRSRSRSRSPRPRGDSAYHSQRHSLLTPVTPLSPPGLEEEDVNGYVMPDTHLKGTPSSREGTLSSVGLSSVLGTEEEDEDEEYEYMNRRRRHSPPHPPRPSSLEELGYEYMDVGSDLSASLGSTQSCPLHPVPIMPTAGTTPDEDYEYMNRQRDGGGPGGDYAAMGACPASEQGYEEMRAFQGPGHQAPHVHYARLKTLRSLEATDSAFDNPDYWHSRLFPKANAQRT
UniProt Q15303, whole entry R711C: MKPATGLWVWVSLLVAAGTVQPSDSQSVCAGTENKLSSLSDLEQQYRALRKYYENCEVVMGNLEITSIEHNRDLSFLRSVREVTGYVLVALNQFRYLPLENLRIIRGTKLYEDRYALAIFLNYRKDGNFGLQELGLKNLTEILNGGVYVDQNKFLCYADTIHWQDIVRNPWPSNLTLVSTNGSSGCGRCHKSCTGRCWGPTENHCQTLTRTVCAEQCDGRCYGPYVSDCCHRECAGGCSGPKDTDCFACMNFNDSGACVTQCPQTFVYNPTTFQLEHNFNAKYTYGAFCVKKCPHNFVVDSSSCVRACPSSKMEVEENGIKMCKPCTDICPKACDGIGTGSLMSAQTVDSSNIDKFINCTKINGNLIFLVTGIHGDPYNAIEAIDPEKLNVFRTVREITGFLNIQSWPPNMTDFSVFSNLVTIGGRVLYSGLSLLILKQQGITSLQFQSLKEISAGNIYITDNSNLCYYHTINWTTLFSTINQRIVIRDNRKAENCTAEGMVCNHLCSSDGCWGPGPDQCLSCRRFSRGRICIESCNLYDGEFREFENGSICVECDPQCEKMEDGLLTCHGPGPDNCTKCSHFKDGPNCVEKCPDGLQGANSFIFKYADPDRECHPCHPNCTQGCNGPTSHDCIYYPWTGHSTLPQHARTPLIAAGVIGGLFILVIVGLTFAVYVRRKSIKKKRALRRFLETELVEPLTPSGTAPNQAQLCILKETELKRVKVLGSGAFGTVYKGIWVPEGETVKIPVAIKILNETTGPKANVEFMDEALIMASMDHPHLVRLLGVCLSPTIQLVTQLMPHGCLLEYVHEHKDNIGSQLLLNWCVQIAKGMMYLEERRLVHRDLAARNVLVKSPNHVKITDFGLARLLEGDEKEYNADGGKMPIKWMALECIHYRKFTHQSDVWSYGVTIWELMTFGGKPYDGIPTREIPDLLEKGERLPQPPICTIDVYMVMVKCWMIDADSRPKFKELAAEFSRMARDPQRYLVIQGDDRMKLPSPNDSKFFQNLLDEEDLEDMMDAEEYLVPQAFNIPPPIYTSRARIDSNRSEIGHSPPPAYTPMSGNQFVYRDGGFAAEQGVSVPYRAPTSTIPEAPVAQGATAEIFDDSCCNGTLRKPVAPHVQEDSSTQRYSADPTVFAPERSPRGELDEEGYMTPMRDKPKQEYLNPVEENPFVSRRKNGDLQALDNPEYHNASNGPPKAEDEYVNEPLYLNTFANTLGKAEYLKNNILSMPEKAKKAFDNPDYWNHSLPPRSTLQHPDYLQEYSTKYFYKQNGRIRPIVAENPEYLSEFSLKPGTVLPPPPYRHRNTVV
UniProt O75460: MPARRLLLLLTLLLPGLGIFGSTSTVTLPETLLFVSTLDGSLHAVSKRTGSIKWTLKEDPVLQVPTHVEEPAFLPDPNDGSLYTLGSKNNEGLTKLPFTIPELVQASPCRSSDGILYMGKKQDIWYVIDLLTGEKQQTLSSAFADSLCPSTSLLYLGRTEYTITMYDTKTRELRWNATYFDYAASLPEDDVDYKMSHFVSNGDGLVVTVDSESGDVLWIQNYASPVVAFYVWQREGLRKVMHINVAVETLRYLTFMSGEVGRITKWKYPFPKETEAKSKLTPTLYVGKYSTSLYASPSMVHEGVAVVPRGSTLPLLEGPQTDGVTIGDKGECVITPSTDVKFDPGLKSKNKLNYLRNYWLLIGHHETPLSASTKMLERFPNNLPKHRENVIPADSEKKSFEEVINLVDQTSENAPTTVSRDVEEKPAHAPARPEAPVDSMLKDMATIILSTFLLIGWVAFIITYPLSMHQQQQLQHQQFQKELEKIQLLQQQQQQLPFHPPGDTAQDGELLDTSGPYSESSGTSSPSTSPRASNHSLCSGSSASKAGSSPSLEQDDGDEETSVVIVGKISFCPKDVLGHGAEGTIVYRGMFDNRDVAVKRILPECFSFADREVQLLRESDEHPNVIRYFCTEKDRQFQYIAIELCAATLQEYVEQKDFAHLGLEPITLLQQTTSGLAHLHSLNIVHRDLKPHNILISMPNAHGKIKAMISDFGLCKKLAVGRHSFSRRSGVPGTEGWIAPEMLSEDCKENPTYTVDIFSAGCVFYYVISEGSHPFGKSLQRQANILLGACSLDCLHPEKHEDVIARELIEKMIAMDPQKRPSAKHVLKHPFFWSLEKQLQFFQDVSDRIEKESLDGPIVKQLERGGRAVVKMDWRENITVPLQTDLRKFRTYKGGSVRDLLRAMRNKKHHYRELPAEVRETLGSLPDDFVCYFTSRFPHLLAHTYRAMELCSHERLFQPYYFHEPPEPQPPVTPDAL
UniProt P21802, whole entry, looked up: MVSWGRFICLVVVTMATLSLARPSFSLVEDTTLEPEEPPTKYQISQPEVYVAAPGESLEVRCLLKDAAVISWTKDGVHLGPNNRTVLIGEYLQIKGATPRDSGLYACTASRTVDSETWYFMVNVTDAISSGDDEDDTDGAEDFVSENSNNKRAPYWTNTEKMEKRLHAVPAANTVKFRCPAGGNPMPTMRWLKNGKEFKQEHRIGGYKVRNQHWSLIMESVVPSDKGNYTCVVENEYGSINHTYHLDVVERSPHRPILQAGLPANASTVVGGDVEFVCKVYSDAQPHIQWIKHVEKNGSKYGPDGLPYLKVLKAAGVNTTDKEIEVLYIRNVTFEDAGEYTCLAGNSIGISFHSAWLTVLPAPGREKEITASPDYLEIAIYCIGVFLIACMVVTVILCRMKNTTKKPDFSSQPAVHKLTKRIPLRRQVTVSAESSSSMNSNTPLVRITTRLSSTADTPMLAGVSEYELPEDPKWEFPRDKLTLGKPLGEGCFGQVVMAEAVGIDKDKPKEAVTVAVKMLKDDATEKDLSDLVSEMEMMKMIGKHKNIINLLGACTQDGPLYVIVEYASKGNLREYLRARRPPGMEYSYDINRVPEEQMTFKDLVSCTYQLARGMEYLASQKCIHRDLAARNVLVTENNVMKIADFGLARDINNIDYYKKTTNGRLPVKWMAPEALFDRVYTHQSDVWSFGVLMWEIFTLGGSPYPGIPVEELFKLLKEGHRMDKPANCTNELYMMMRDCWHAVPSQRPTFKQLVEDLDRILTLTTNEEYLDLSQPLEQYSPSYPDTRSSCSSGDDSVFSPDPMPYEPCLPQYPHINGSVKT

Measured: number of time points

O=Nc1c2[nH]c3ccccc3nc-2c2ccccc12 [IQ-1S (free acid)] (2.5 µM)
0: all assays above

COc1ncccc1-c1cnn2ccc(N3CCN(C(=O)OC(C)C)CC3)nc12 (10 µM)
1: EGFR_L861Q
2: EGFR_T790M | ERN1
4: EGFR_G719S_T790M
0: all other assays above

O=C(NC1CCOCC1)c1ccc(-c2cc(-c3c[nH]nc3-c3ccccn3)ccn2)cc1 (10 µM)
0: all assays above

COCCNc1cc(NC(=O)N2CCCc3cc(CN4CCN(C)CC4=O)c(C=O)nc32)ncc1C#N [Roblitinib] (10 µM)
0: all assays above

Cc1cc2sc(NC(=O)Cc3ccccc3)nc2cc1Cl (10 µM)
0: all assays above

CC(C)CCNC(=O)c1ccc2c(c1)nc(Nc1n[nH]c3ccc(-c4ccccc4OC(F)(F)F)cc13)n2C1CCC(O)CC1 (stereo not drawn) [IRAK inhibitor 4 (trans)] (10 µM)
0: all assays above

C=CC(=O)N1C[C@H](COc2nc(Nc3cnn(C)c3)nc3[nH]cc(Cl)c23)[C@@H](OC)C1 (2.5 µM)
0: all assays above

N[C@@H](CCC(=O)O)C(=O)N[C@@H](Cc1c[nH]c2ccccc12)C(=O)O [Oglufanide] (10 µM)
0: all assays above

Cc1cc(C)nc(NS(=O)(=O)c2ccc(NC(=S)NC(=O)COc3ccc(Br)cc3Cl)cc2)n1 (2.5 µM)
0: all assays above

Cc1ccc(NC(=O)c2ccnc(C(F)(F)F)c2)cc1-c1cc(OCCO)nc(N2CCOCC2)c1 (10 µM)
0: all assays above

Arranged by SMILES length (ascending): three of the compounds above.
Cc1ccc(NC(=O)c2ccnc(C(F)(F)F)c2)cc1-c1cc(OCCO)nc(N2CCOCC2)c1 (10 µM)
0: all assays above

Cc1cc(C)nc(NS(=O)(=O)c2ccc(NC(=S)NC(=O)COc3ccc(Br)cc3Cl)cc2)n1 (2.5 µM)
0: all assays above

C=CC(=O)N1C[C@H](COc2nc(Nc3cnn(C)c3)nc3[nH]cc(Cl)c23)[C@@H](OC)C1 (2.5 µM)
0: all assays above

(cont.)

CC(C)=CCc1c(-c2ccc(O)cc2O)oc2c3c(cc(O)c2c1=O)OC(C)(C)C=C3 [Morusin] (2.5 µM)
0: all assays above

c1cc(NC2CCNCC2)nc(-c2cnc3ccccn23)c1 [IRAK inhibitor 1] (10 µM)
0: all assays above

NC1=NCCN1CC(=O)O [Cyclocreatine] (10 µM)
0: all assays above

CC(C)(C)n1nc(Cc2ccccc2O)c2c(N)ncnc21 (10 µM)
0: all assays above

COc1cc(-c2cn[nH]c2)ccc1C(=O)Nc1ccc2c(c1)CCNCC2 (10 µM)
1: DDR1
0: all other assays above

Cn1cc(C2=C(c3cccc(N)c3)C(=O)NC2=O)c2ccccc21 (10 µM)
0: all assays above

C[C@H](NC(=O)[C@H]1NCC[C@@H]1O)c1ccc(-c2noc(CCC3CCCC3)n2)cc1 (10 µM)
0: all assays above
